Results taken from patent US12208160B2, “Pharmaceutical compositions comprising coated API” (Catalent U.K. Swindon Zydis Limited, priority 2020, dated 2025).

Test: Height of foam of suspension mixes of coated Ibuprofen (aeration)

**Q.** What does the source list for C=C(C)[C@H]1CC=C(C)CC1 [limonene]?
**A.** Foam Height (0.30 % w/w in matrix solution/suspension with coated Ibuprofen): 1 mm; Foam Height (0.6 % w/w in matrix solution/suspension with coated Ibuprofen): 1 mm; Foam Height ([…] w/w in matrix solution/suspension with coated Ibuprofen): 2 mm
